Experimental data from the supplement of paper PMC12819154, “High-throughput peptide-centric local stability assay extends protein–ligand identification to membrane proteins, tissues and bacteria” (Nature Structural & Molecular Biology, 2025).
The other results are listed elsewhere or left out. Small differences around the control level are noise.

By UniProt entry, the sequences of proteins in these tests, tags left out. Where a name states a change or a piece, a line headed by the entry shows the natural chain unless it says otherwise.
UniProt Q8K0R6: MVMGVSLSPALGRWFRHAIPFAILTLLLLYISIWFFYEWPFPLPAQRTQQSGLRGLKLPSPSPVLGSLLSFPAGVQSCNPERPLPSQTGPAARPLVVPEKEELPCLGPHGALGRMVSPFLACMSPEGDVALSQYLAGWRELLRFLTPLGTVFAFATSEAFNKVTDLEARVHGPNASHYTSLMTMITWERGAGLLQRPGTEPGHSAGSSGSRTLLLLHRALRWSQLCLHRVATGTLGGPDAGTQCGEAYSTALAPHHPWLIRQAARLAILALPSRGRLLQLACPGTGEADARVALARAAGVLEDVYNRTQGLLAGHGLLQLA
UniProt Q8CII2: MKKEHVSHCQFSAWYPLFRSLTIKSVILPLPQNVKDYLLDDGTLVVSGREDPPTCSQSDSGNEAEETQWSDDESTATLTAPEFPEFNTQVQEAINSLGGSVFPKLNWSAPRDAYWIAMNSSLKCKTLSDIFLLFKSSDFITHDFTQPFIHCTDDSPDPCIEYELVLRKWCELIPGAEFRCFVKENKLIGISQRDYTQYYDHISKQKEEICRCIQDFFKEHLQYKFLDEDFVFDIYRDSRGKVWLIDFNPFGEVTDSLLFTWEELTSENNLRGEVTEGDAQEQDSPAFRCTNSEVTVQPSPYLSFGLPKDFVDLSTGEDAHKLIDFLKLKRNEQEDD
UniProt Q8K0C1: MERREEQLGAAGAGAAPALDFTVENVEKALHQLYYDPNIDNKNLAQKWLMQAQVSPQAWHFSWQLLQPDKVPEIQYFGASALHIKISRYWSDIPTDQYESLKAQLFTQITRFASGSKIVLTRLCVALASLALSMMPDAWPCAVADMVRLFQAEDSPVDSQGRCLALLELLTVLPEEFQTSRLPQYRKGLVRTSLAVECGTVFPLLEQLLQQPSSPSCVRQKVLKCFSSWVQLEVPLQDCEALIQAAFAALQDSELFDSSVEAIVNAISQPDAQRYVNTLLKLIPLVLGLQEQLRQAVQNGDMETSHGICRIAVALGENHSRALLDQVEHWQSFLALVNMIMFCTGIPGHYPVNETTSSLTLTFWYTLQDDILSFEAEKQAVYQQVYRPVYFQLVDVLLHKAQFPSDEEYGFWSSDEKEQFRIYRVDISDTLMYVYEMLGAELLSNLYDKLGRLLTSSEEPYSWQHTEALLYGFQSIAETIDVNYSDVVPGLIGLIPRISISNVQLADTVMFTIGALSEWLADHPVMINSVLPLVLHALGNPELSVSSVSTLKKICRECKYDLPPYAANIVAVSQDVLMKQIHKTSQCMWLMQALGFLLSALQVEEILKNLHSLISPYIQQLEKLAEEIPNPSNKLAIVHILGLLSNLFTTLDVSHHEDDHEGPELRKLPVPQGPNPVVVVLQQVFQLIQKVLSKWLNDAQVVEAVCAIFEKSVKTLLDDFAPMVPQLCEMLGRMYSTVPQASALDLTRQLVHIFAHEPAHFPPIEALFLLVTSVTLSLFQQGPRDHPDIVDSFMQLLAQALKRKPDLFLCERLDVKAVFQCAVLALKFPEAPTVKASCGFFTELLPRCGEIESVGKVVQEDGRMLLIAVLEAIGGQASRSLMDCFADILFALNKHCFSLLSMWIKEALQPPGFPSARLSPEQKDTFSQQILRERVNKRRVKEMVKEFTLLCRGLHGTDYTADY
UniProt Q8CG76: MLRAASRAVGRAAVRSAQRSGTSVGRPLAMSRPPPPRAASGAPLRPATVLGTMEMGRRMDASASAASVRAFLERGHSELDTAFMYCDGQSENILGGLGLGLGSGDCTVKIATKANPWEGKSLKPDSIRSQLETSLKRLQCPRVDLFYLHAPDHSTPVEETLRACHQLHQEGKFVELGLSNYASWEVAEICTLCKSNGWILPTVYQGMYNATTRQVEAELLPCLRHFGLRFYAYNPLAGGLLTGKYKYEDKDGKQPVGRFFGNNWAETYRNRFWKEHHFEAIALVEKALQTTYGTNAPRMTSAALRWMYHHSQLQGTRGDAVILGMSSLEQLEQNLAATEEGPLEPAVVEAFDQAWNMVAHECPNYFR
UniProt Q8K0Q5: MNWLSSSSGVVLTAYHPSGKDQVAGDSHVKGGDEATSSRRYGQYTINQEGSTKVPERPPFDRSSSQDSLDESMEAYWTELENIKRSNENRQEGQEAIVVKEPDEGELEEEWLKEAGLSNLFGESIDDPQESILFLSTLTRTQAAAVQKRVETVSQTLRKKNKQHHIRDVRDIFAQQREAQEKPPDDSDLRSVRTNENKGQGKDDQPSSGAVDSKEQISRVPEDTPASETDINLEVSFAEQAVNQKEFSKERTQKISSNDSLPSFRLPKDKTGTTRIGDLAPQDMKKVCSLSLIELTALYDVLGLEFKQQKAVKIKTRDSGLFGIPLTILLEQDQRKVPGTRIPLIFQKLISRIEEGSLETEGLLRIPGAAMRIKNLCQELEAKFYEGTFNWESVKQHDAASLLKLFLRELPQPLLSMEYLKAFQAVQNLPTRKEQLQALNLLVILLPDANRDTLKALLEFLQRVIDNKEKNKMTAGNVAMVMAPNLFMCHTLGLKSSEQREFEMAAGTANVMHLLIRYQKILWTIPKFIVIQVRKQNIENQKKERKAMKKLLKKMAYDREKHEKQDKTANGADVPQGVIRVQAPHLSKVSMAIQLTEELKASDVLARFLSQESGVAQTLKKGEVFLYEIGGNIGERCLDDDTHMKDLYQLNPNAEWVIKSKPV
UniProt Q8CCF0: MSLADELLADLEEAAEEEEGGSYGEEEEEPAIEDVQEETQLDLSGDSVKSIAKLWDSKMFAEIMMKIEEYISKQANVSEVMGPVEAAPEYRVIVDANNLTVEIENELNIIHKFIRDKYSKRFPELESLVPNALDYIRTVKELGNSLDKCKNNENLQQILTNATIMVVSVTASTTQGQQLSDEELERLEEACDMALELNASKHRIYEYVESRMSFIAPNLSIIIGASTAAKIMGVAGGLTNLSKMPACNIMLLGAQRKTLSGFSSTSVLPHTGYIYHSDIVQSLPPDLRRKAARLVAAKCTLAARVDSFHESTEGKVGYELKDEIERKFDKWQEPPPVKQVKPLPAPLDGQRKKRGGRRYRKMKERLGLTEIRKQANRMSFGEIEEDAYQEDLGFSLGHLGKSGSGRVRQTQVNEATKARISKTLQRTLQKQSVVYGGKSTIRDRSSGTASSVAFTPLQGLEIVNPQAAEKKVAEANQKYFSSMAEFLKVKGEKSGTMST
UniProt Q8K039: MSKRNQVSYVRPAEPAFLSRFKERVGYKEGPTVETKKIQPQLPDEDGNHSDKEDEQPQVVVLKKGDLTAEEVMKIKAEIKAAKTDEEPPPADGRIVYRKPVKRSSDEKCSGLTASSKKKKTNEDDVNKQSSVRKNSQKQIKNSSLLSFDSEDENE
UniProt Q8CGZ0: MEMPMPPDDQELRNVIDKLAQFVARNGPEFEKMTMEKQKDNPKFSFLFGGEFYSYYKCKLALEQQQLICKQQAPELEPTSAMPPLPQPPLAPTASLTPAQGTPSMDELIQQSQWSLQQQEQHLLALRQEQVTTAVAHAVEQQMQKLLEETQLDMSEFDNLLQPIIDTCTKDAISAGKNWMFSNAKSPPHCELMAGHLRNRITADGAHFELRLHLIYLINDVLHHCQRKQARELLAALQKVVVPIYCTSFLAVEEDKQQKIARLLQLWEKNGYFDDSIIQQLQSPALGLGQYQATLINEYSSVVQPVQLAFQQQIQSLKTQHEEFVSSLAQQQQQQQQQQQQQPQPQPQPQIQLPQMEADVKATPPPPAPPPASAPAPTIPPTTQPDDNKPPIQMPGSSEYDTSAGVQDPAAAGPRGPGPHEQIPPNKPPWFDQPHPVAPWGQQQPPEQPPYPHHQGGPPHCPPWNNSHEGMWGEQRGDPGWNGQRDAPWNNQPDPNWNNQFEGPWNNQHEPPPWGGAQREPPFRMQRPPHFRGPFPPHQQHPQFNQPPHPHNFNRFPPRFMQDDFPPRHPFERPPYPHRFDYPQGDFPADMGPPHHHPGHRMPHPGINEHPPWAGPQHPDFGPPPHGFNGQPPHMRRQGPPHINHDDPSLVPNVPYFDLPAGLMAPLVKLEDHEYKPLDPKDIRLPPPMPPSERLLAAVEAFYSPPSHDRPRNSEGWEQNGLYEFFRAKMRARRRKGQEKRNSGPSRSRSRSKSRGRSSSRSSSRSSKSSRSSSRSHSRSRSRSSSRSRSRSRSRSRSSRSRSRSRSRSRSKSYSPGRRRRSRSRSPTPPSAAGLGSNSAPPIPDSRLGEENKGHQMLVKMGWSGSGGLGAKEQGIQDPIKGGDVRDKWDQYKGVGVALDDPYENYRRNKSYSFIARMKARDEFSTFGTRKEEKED
UniProt Q8CH62: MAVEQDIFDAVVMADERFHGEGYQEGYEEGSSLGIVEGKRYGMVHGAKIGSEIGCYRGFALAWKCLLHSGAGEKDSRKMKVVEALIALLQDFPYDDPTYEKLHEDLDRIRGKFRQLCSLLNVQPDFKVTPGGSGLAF
UniProt Q8CFB4: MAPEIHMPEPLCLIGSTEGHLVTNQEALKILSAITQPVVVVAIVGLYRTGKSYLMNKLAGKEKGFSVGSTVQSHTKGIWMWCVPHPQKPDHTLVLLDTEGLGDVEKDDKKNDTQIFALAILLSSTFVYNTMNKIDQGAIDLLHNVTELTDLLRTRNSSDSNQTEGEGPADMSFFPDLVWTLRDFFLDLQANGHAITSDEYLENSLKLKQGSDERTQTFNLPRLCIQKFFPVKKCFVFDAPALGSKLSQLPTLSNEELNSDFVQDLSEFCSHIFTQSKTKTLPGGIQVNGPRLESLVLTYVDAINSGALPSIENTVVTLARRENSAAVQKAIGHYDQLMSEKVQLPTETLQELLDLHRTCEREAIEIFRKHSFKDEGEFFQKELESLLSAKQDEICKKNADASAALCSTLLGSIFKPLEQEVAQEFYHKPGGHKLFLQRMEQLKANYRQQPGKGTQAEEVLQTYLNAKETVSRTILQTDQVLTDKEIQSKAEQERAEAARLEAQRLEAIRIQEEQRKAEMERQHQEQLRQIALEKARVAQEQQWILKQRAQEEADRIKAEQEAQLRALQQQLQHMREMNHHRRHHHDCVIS
UniProt Q8K0S2: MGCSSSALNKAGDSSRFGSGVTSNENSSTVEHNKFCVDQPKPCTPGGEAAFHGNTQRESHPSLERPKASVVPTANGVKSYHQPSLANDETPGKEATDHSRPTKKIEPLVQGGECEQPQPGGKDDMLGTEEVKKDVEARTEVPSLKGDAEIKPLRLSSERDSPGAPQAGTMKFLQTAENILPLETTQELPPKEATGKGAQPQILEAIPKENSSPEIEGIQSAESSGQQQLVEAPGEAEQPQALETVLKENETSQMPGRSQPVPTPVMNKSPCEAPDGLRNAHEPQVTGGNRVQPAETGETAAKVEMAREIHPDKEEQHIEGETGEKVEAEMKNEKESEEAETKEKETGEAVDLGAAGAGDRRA
UniProt Q8CGF7: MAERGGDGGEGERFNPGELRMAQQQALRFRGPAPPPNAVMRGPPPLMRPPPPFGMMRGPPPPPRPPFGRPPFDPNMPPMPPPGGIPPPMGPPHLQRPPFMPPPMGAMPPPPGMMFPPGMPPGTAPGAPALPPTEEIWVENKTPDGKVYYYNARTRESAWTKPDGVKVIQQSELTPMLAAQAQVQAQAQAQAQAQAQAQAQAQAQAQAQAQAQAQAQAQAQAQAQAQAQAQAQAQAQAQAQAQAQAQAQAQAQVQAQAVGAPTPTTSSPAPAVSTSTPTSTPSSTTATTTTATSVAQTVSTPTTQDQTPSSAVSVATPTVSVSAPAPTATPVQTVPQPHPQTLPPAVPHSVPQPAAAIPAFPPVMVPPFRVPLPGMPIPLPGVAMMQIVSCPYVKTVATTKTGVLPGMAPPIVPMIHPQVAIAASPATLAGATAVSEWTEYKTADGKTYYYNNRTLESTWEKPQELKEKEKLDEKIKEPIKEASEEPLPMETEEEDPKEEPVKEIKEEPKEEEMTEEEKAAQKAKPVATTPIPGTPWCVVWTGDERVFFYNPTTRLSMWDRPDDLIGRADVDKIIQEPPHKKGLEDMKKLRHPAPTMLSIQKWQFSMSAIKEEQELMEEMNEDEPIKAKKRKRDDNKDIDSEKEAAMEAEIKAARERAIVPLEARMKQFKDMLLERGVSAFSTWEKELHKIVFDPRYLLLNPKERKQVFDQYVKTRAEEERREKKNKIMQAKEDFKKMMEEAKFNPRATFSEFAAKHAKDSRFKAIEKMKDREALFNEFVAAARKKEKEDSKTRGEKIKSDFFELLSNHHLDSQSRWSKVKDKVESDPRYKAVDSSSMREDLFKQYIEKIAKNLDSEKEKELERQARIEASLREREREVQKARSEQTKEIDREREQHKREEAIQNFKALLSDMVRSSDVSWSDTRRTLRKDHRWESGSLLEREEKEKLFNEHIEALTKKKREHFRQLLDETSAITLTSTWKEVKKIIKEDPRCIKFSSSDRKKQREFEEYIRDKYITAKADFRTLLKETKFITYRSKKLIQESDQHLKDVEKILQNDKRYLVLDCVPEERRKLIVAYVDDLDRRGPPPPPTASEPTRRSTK

Compound: CN[C@@H]1C[C@H]2O[C@@](C)([C@@H]1OC)n1c3ccccc3c3c4c(c5c6ccccc6n2c5c31)C(=O)NC4 [staurosporine]
Test: log2 fold change of tryptic peptide abundance, ligand vs vehicle (limited proteolysis) (log2 ratio); higher = more trypsin-susceptible (destabilized)
Conditions: ligand concentration: 20 uM; sample: mouse liver crude lysate; replicate design: treated separately

Target	log2 fold change
UniProt Q8K013 (peptide sequence: VSHATPVIADYAFTTLRPELGK, peptide start residue: 168)	-0.186
UniProt Q8K0R6 (peptide sequence: WSQLCLHR, peptide start residue: 222)	-0.509
UniProt Q8CII2 (peptide sequence: CFVKENK, peptide start residue: 180)	-0.396
UniProt Q8CI59 (peptide sequence: EHYSSLCSLADQLAGK, peptide start residue: 94)	-0.207
UniProt Q8CFI7 (peptide sequence: LDDDGLIAPGVR, peptide start residue: 848)	0.377
UniProt Q8CFK6 (peptide sequence: ASQSLDCCQR, peptide start residue: 591)	0.241
UniProt Q8CGK3 (peptide sequence: RAGVTCIILPAENRK, peptide start residue: 893)	-0.536
UniProt Q8CHD8 (peptide sequence: GWSEEPEEHAQLQR, peptide start residue: 34)	0.28
UniProt Q8CHK4 (peptide sequence: HPPGNEIYR, peptide start residue: 287)	-0.527
UniProt Q8K0C1 (peptide sequence: EFTLLCR, peptide start residue: 946)	0.168
UniProt Q8CGB6 (peptide sequence: HFLIETGPK, peptide start residue: 1192)	-0.676
UniProt Q8CHT6 (peptide sequence: QFLLTCPGER, peptide start residue: 235)	0.153
UniProt Q8CGN5 (peptide sequence: GLLGGVVHTVQNTLR, peptide start residue: 332)	-0.199
UniProt Q8CFU8 (peptide sequence: ALHHAAAPMPAR, peptide start residue: 149)	0.23
UniProt Q8CIL4 (peptide sequence: IAVEEEKR, peptide start residue: 210)	-0.478
UniProt Q8CG76 (peptide sequence: EHHFEAIALVEK, peptide start residue: 275)	-0.268
UniProt Q8CG72 (peptide sequence: EAFDEVDMAHR, peptide start residue: 99)	-1.16
UniProt Q8K0Q5 (peptide sequence: TQAAAVQKR, peptide start residue: 141)	0.738
UniProt Q8CFA1 (peptide sequence: RLMENIVLYKEER, peptide start residue: 601)	0.449
UniProt Q8CCF0 (peptide sequence: YFSSMAEFLK, peptide start residue: 479)	-0.0785
UniProt Q8K039 (peptide sequence: CSGLTASSKK, peptide start residue: 109)	-0.904
UniProt Q8CGZ0 (peptide sequence: LPPPMPPSER, peptide start residue: 685)	0.178
UniProt Q8CFI2 (peptide sequence: ARPLVPSSQK, peptide start residue: 2)	0.233
UniProt Q8CBE3 (peptide sequence: QVVTASWDR, peptide start residue: 297)	-0.36
UniProt Q8CBD1 (peptide sequence: LQAVASMVEKR, peptide start residue: 241)	0.242
UniProt Q8CH62 (peptide sequence: YGMVHGAK, peptide start residue: 41)	-0.0771
UniProt Q8CFB4 (peptide sequence: TLPGGIQVNGPR, peptide start residue: 280)	0.117
UniProt Q8CEC0 (peptide sequence: KELQLIPDQLR, peptide start residue: 675)	-0.192
UniProt Q8K0S2 (peptide sequence: NAHEPQVTGGNR, peptide start residue: 279)	0.332
UniProt Q8CGF7 (peptide sequence: GGDGGEGERFNPGELR, peptide start residue: 5)	-0.308

As entered above:
UniProt Q8CG72 (peptide sequence: EAFDEVDMAHR, peptide start residue: 99) | log2 fold change: -1.16
UniProt Q8CIL4 (peptide sequence: IAVEEEKR, peptide start residue: 210) | log2 fold change: -0.478
